Experimental data published in PubChem BioAssay AID662 (National Center for Advancing Translational Sciences (NCATS), 2007).
Where “and” joins values, the source holds several entries; their conditions need not be identical. Equal values may be shown once. The list shows a part of the results. Shown are side measurements of this screen, not its main read-out; they come without a call. Compounds called inactive in the main read-out are mostly missing here. Potencies come from curve fits of mixed quality, noted in brackets.

Experiment: Cell signaling CRE-BLA (Fsk stim)
Conditions: CHO CRE-bla reporter (cAMP response element driving beta-lactamase), forskolin EC10, beta-lactamase ratio; measured here: 460 nm blue channel
Summary of the method: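 qHTS titration format; CRE-bla CHO reporter; stimulus EC10 NKH 477, a water-soluble forskolin. Read: CCF4 460/530 nm ratio. Potency expressed as AC50 for activators or inhibitors.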

| Structure (SMILES) | AC50 |
| --- | --- |
| Cc1ccc2oc(NC(=O)N3CCOCC3)cc(=O)c2c1 | 0.398 µM [rising, full curve] |
| CCOC(=O)c1ccc2c(c1)C1C=CCC1C(C(=O)O)N2 (stereo unspecified) | 12.6 µM [falling, single point] |
| CCNc1nc2c(c(=O)n(Cc3ccccc3)c(=O)n2C)n1Cc1ccccc1 | 12.6 µM [rising, single point] |
| N#CCCn1c(=O)c(-c2cc(F)cc(F)c2)nc2cnc(OCc3ccccc3)nc21 | 12.6 µM [rising, partial curve] |
| COc1ccc(-c2nc3cnc(N(C)C)nc3n(C[C@H]3CCCO3)c2=O)cc1 | 2 µM [rising, full curve] |
| O=C1c2ccccc2CC1Sc1nnc(-c2ccccn2)o1 (stereo unspecified) | 6.31 µM [falling, partial curve] |
| Cc1ccc(C2C=C(c3ccccc3OC(F)F)Nc3ncnn32)cc1 (stereo unspecified) | 25.1 µM [rising, single point] |
| CCOC(=O)c1[nH]c(=O)[nH]c1CSCCO | 0.501 µM [rising, partial curve] |
| O=C(CSc1nnnn1C1CCCC1)N1CCN(C(=O)c2ccco2)CC1 | 2.51 µM [rising, single point] |
| Cc1ccc(S(=O)(=O)c2c(C)nn(C(C)(C)C)c2OC(=O)c2ccco2)cc1 | 12.6 µM [falling, single point] |
| CC(C)NC[C@@H](O)COc1cccc2[nH]ccc12 | 12.6 µM [falling, single point] and 31.6 µM [falling, single point] |
| CCCC(C(=O)NCc1ccc(OC)cc1)N(Cc1ccco1)C(=O)c1snc(C(N)=O)c1N (stereo unspecified) | 5.01 µM [falling, single point] |
| CCN=c1sc(C(=O)NCCc2ccccc2)cc(=O)n1CC | 1 µM [rising, full curve, poor fit] |
| CCOC(=O)C1CCN(C(=O)Nc2ccc(NC(=O)C3CCN(C(=O)OCC)CC3)cc2)CC1 | 5.01 µM [rising, single point] |
| COC(=O)/C=C(\C)NC(=O)c1cccs1 | 15.8 µM [rising, single point] |
| COC(=O)c1ccc(Oc2nc(Nc3ccc(F)cc3)nc(N3CCCC3)n2)cc1 | 2 µM [rising, full curve] |
| CC(C)n1nc(C(=O)OCC(=O)N(C)C2CCS(=O)(=O)C2)c2ccccc2c1=O (stereo unspecified) | 12.6 µM [falling, partial curve, poor fit] |
| CC1Cc2ccccc2N1C(=O)C1CCN(S(=O)(=O)c2cccs2)CC1 (stereo unspecified) | 1 µM [falling, single point] |
| COc1ccc(C(=O)n2nc(-c3ccco3)nc2SC)cc1OC | 10 µM [falling, partial curve] |
| C=CCNC(=O)c1c(N)n(-c2cccc(S(N)(=O)=O)c2)c2nc3ccccc3nc12 | 12.6 µM [rising, partial curve] |
| CCOC(=O)c1c(CN(CC)CC)oc2cc(Br)c(O)cc12 | 3.16 µM [rising, full curve] |
| CCOc1ccccc1COC(=O)c1cccc(-n2cnnn2)c1 | 12.6 µM [rising, partial curve] |

| Structure (SMILES) | AC50 |
| --- | --- |
| Cc1ccc(NS(=O)(=O)c2cccc(C(=O)N3CCOCC3)c2)cc1 | 5.01 µM [falling, partial curve] |
| CCOC(=O)N1CCC(C(N)=O)CC1 | 1.26 µM [falling, partial curve] |
| CCCn1c(=O)c(C(=O)NCc2ccccn2)c(O)c2ccccc21 | 5.01 µM [rising, partial curve] |
| COc1ccc(C(=O)N(CN2CCCC2=O)c2nccs2)cc1OC | 3.16 µM [rising, full curve] |
| CCOC(=O)c1cc(C)[nH]c(=S)c1C#N | 25.1 µM [rising, single point] |
| CC1CN(S(=O)(=O)Cc2ccccc2)CC(C)O1 (stereo unspecified) | 3.16 µM [rising, partial curve] |
| O=c1cc(-c2ccccc2O)oc2cc(O)cc(O)c12 | 31.6 µM [falling, single point] |
| COCc1cc(C)nc2sc(C(=O)OC)c(N)c12 | 15.8 µM [rising, single point] |
| COc1cccc(Nc2ncc3nc(-c4ccc(Cl)cc4)c(=O)n(C4CC4)c3n2)c1 | 3.98 µM [rising, partial curve] |
| COC(=O)[C@@]1(Cc2ccc(OC)cc2)[C@H]2c3cc(C(=O)N4CCCC4)n(CCc4ccc(O)c(OC)c4)c3C[C@H]2CN1C(=O)c1ccccc1 | 10 µM [rising, partial curve] |
| O=C(O)COc1cccc(-c2ocnc2-c2nc(-c3ccccc3)c(-c3ccccc3)o2)c1 | 12.6 µM [falling, partial curve] |
| COc1ccc(C2C3=C(CCCC3=O)Nc3nc(SCc4ccccc4)nn32)cc1OC (stereo unspecified) | 15.8 µM [rising, single point] |
| N#CCCn1c(=O)c(-c2cc(F)cc(F)c2)nc2cnc(Oc3cccc(Cl)c3)nc21 | 7.94 µM [rising, partial curve] |
| COc1cccc(Nc2ncc3nc(C)c(=O)n(C[C@H]4CCCO4)c3n2)c1 | 5.01 µM [rising, partial curve] |
| CS(=O)(=O)c1ccc2nc(NC(=O)Cc3ccccc3)sc2c1 | 25.1 µM [rising, single point] |
| O=c1[nH]n(-c2cccc3cccnc23)c(=O)c2ccccc12 | 0.126 µM [falling, full curve, poor fit] |
| Cc1ccc(-c2nn(-c3ccccc3)cc2/C=C(\C#N)c2cccc(C#N)c2)o1 | 6.31 µM [rising, partial curve] |
| O=C(OCC(=O)N1CCc2ccccc21)c1ccccc1 | 0.126 µM [falling, single point] |
| Cc1nn(-c2ccccc2)c2sc(-c3n[nH]c(=S)o3)cc12 | 0.316 µM [rising, full curve] |
| O=C(C1CCCCC1)N1CCCC(c2nc3c(nnn3Cc3ccccc3)c(=O)[nH]2)C1 (stereo unspecified) | 12.6 µM [rising, single point] |
| COc1nc(Nc2cccc(C)c2)nc(N2CCCCC2)n1 | 12.6 µM [rising, partial curve] |
| O=C(CCCn1c(=O)[nH]c2ccsc2c1=O)N1CCN(c2ccccn2)CC1 | 0.501 µM [falling, partial curve] |

Exported field by field: part of the list above.
COc1cccc(Nc2ncc3nc(-c4ccc(Cl)cc4)c(=O)n(C4CC4)c3n2)c1
  AC50: 3.98 µM [rising, partial curve]
COC(=O)[C@@]1(Cc2ccc(OC)cc2)[C@H]2c3cc(C(=O)N4CCCC4)n(CCc4ccc(O)c(OC)c4)c3C[C@H]2CN1C(=O)c1ccccc1
  AC50: 10 µM [rising, partial curve]
O=C(O)COc1cccc(-c2ocnc2-c2nc(-c3ccccc3)c(-c3ccccc3)o2)c1
  AC50: 12.6 µM [falling, partial curve]

Continuation:

| Structure (SMILES) | AC50 |
| --- | --- |
| CCOC(=O)c1c(-c2ccccc2)csc1NC(=O)c1nn(CC)cc1Br | 2.51 µM [rising, full curve] |
| CC(=O)N(Cc1cc2c(C)cc(C)cc2[nH]c1=O)C1CCCCC1 | 12.6 µM [rising, single point] |
| NS(=O)(=O)c1ccc(CCNC(=O)c2ccccc2F)cc1 | 0.316 µM [falling, partial curve] |
| CCC(C)N(C(=O)COC(=O)c1[nH]c(C)c(C(C)=O)c1C)C1CCS(=O)(=O)C1 (stereo unspecified) | 0.00398 µM [falling, full curve, poor fit] |
| Cn1c(CSc2nnc(SCc3ccccc3)s2)nc2ccccc21 | 12.6 µM [rising, single point] |
| COc1ncc2nc(-c3ccc(F)cc3)c(=O)n(-c3ccccc3)c2n1 | 25.1 µM [rising, partial curve] |
| Cc1cc2cc(CN3C(=O)c4ccccc4C3=O)ccc2[nH]1 | 10 µM [rising, partial curve] |
| COC(=O)c1cc(N2C(=O)C3C(C2=O)C2(C)C=CC3(C)O2)ccc1Cl (stereo unspecified) | 10 µM [falling, partial curve] |
| Cc1cc(-c2cccnc2)c(C#N)c(SCC#N)n1 | 20 µM [rising, single point] |
| CCN(CC)c1ccc(C2C(C(=O)OCCOC)=C(C)NC3=C2C(=O)CC(C)(C)C3)cc1 (stereo unspecified) | 10 µM [rising, partial curve] |
| CCCCOC(=O)c1ccc(NS(=O)(=O)c2cc(-c3nnnn3CC)ccc2OC)cc1 | 25.1 µM [falling, single point] |
| COc1cccc(-c2ccc3ncnc(Nc4ccccc4)c3c2)c1 | 12.6 µM [rising, partial curve] |
| CC(C)OP(=O)(c1ccc(N(C)C)cc1)C(O)c1c(Cl)cccc1Cl (stereo unspecified) | 1 µM [rising, full curve, poor fit] |
| COc1ccc(-c2noc(CSc3nnc(Cc4ccccc4)n3-c3cccc(C)c3)n2)cc1OC | 25.1 µM [rising, single point] |
| COCCn1c(SCC(=O)Nc2ccccc2)nc2c1c(=O)[nH]c(=O)n2C | 10 µM [rising, single point] |
| Cc1ccc(C)c(N(CC(=O)NCCSCc2ccco2)S(C)(=O)=O)c1 | 0.158 µM [falling, full curve, poor fit] |
| CCN(CCCNC(=O)COc1cc(=O)n(C)c2ccccc12)c1cccc(C)c1 | 15.8 µM [rising, partial curve, poor fit] |
| CCNc1ncc2nc(CCc3ccccc3)c(=O)n(Cc3cccc(OC)c3)c2n1 | 10 µM [rising, partial curve] |
| Nc1c(C(=O)NCc2ccc3c(c2)OCO3)c2nc3ccccc3nc2n1CCCN1CCOCC1 | 12.6 µM [rising, partial curve] |
| C=C(C)CSc1nc(N)c(C#N)c(-c2ccc(C)cc2)c1C#N | 2.51 µM [rising, full curve] |
| Cc1ccc(C2CC(C(F)F)n3ncc(C(=O)Nc4cnn(Cc5ccccc5C)c4)c3N2)cc1 (stereo unspecified) | 7.94 µM [falling, partial curve] |
| Cc1csc(NC(=O)CCNS(=O)(=O)c2ccc3c(c2)c(=O)n(C)c(=O)n3C)n1 | 20 µM [rising, single point] |
